Source: the supplement of paper PMC6078165

Test system: MDAMB436
Test: relative JC-1 red fluorescence (viability) vs pre-drug, coculture with fibroblast (fraction); higher = more viable cancer cells
Method: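 JC-1 labelled TNBC cells cocultured 1:1 (1,500 cells each) with CellTrace Violet stained primary or stromal fibroblasts in 384-well plates in FluoroBrite medium, treated with one of 42 anticancer drugs at 0.1, 1, 10 or 100 uM. JC-1 red fluorescence (mitochondrial integrity in cancer cells only) was read by plate reader every 8 h for 72 h. Values are normalised to each well's pre-drug value. The stock of one drug was tenfold lower, so its dose labels may be too high.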

CO[C@H]1C[C@@H]2CC[C@@H](C)[C@@](O)(O2)C(=O)C(=O)N2CCCC[C@H]2C(=O)O[C@H]([C@H](C)C[C@@H]2CC[C@@H](O)[C@H](OC)C2)CC(=O)[C@H](C)/C=C(\C)[C@@H](O)[C@@H](OC)C(=O)[C@H](C)C[C@H](C)/C=C/C=C/C=C/1C [Rapamycin]
relative JC-1 red fluorescence
Conditions	8 h	16 h	24 h	32 h	40 h	48 h	56 h	64 h	72 h
10 µM, coculture fibroblast: C12385	0.819	0.912	0.925	0.946	0.921	0.863	0.877	0.876	0.878
10 µM, coculture fibroblast: H6013	0.706	0.779	0.893	0.931	0.81	0.862	0.767	0.863	0.846
10 µM, coculture fibroblast: H6019	0.748	0.774	0.852	0.865	0.908	0.824	0.85	0.8724	0.891
10 µM, coculture fibroblast: H6076	0.837	0.914	0.938	0.762	0.892	0.738	0.879	0.796	0.848
10 µM, coculture fibroblast: H6231	0.832	0.826	0.851	0.893	0.933	0.927	0.936	0.93	0.803
10 µM, coculture fibroblast: HADF	0.744	0.7997	0.88	0.944	0.815	0.907	0.891	0.86	0.8738
10 µM, coculture fibroblast: HCFa	0.742	0.775	0.832	0.905	0.857	0.795	0.78	0.889	0.837
10 µM, coculture fibroblast: HCPF	0.814	0.822	0.926	0.916	0.933	0.913	0.902	0.879	0.857
10 µM, coculture fibroblast: HHSteC	0.729	0.873	0.947	0.949	0.847	0.836	0.86	0.931	0.847
10 µM, coculture fibroblast: HMF	0.798	0.795	0.913	0.947	0.871	0.837	0.803	0.829	0.87
10 µM, coculture fibroblast: HPFa	0.774	0.863	0.933	0.984	0.919	0.86	0.85	0.9855	0.9401
10 µM, coculture fibroblast: HUF	0.838	0.901	0.936	0.949	0.906	0.899	0.832	0.944	0.97
10 µM, coculture fibroblast: Hs5	0.805	0.8616	0.942	0.946	0.808	0.9	0.749	0.923	0.921
10 µM, coculture fibroblast: Hs27A	0.6946	0.761	0.837	0.879	0.8818	0.9617	0.873	0.855	0.7885
10 µM, coculture fibroblast: Hs343T	0.888	0.883	0.95	0.956	0.973	0.932	0.937	0.916	0.919
10 µM, coculture fibroblast: WS1	0.798	0.8166	0.869	0.855	0.864	0.866	0.855	0.827	0.81
100 µM, coculture fibroblast: C12385	0.8626	0.8623	0.754	0.643	0.55	0.46	0.39	0.406	0.444
100 µM, coculture fibroblast: H6013	0.838	0.869	0.907	0.869	0.803	0.734	0.629	0.632	0.662
100 µM, coculture fibroblast: H6019	0.9324	0.918	0.902	0.826	0.754	0.652	0.544	0.444	0.402
100 µM, coculture fibroblast: H6076	0.84	0.894	0.808	0.893	0.812	0.816	0.74	0.674	0.725
100 µM, coculture fibroblast: H6231	0.876	0.818	0.842	0.741	0.879	0.787	0.804	0.749	0.904
100 µM, coculture fibroblast: HADF	0.841	0.895	0.9464	0.941	0.908	0.828	0.727	0.601	0.533
100 µM, coculture fibroblast: HCFa	0.841	0.912	0.923	0.883	0.8	0.734	0.5659	0.545	0.55
100 µM, coculture fibroblast: HCPF	0.814	0.865	0.85	0.702	0.857	0.893	0.809	0.799	0.754
100 µM, coculture fibroblast: HHSteC	0.815	0.779	0.835	0.837	0.75	0.723	0.676	0.739	0.761
100 µM, coculture fibroblast: HMF	0.7076	0.862	0.9313	0.83	0.873	0.822	0.71	0.825	0.84
100 µM, coculture fibroblast: HPFa	0.861	0.93	0.936	0.881	0.9069	0.841	0.853	0.828	0.734
100 µM, coculture fibroblast: HUF	0.953	0.947	0.868	0.753	0.625	0.474	0.362	0.305	0.331
100 µM, coculture fibroblast: Hs5	0.873	0.787	0.862	0.708	0.894	0.768	0.786	0.724	0.69
100 µM, coculture fibroblast: Hs27A	0.926	0.822	0.745	0.8569	0.85	0.902	0.928	0.723	0.697
100 µM, coculture fibroblast: Hs343T	0.947	0.781	0.81	0.848	0.87	0.832	0.825	0.687	0.628
100 µM, coculture fibroblast: WS1	0.935	0.893	0.834	0.73	0.62	0.495	0.392	0.377	0.409

Values are relative to the signal before dosing, not to a vehicle control; the signal also falls without drug.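 Fibroblast labels denote human fibroblasts, mainly primary ones from uterus (C12385, HUF), lung (H6013), bone (Hs27A), adrenal (HADF) and skin (WS1), plus mammary HMF and breast cancer-associated Hs343T. Cancer cells are basal-like or mesenchymal-like triple-negative breast cancer lines. A hit is a response shift exceeding 3x replicate standard deviation. The tissue of the other fibroblasts is not given here.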
